We go through 22 targets from the supplement of paper PMC11006884.

Protein sequences, listed by entry. Tags and fused reporters are not part of them. Lines headed by an entry give the natural chain unless they say otherwise; changes in a name come on top.
UniProt P06733, whole entry, looked up: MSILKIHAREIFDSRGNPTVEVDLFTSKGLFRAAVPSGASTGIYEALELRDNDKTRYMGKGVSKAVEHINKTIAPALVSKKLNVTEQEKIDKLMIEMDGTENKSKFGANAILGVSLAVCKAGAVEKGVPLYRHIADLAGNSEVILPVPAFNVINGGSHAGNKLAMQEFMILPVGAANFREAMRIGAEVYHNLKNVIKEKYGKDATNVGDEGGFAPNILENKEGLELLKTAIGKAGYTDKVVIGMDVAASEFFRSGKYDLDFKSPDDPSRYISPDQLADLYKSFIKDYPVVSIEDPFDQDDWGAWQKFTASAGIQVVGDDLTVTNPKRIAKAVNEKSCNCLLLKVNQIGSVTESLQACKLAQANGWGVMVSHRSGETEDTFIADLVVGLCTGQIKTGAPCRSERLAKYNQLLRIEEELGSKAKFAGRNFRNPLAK
UniProt P00492: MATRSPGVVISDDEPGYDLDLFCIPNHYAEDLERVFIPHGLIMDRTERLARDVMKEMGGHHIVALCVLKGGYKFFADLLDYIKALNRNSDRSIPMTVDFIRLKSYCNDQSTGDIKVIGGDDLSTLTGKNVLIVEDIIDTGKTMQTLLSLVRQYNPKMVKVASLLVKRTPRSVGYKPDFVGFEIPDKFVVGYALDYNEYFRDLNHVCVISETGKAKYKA
UniProt O95163: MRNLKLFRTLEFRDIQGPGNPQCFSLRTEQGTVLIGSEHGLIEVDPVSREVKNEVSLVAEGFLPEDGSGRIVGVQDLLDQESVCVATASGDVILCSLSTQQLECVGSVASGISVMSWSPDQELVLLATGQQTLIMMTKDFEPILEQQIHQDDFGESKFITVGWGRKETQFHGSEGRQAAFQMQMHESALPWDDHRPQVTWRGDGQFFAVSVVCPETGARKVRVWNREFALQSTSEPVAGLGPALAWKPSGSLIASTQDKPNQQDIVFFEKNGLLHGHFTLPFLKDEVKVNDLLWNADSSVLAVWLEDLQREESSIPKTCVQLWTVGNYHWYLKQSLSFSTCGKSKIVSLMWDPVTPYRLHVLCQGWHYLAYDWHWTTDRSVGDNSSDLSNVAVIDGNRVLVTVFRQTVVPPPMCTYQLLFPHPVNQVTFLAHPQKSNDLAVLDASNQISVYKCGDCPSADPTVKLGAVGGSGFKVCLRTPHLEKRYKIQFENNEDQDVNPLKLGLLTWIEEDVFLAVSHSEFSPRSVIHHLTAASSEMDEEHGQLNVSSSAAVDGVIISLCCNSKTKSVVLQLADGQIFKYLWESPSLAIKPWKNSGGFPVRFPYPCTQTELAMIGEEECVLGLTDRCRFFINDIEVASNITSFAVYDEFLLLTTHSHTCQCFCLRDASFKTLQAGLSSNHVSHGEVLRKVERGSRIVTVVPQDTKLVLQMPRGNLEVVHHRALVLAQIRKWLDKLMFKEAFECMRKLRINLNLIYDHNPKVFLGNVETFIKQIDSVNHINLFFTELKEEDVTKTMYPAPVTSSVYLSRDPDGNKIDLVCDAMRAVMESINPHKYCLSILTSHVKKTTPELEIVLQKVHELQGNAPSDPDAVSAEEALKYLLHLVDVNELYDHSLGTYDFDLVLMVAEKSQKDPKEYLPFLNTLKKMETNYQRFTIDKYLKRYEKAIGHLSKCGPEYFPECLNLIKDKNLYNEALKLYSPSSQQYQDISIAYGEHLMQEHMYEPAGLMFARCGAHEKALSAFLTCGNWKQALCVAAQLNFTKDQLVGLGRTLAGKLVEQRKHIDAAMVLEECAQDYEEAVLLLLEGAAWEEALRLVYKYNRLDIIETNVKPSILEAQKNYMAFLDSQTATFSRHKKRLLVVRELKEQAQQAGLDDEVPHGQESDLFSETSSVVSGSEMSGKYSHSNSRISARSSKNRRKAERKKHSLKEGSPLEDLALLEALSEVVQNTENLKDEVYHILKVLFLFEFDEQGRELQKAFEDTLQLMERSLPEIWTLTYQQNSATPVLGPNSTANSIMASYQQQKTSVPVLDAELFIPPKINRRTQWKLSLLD
UniProt O94888: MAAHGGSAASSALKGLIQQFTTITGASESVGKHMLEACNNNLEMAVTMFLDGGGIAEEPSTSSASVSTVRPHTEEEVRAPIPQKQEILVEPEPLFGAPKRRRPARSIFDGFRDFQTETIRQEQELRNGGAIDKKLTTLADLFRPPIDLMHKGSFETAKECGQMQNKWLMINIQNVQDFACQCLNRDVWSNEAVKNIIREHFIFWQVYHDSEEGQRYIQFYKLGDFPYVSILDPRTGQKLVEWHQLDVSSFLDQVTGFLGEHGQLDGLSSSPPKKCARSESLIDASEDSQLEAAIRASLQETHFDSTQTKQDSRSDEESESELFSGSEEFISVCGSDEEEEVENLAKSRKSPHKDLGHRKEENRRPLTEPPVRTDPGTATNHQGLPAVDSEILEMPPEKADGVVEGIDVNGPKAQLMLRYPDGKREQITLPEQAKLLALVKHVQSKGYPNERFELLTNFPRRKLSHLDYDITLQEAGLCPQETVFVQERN
UniProt O95573: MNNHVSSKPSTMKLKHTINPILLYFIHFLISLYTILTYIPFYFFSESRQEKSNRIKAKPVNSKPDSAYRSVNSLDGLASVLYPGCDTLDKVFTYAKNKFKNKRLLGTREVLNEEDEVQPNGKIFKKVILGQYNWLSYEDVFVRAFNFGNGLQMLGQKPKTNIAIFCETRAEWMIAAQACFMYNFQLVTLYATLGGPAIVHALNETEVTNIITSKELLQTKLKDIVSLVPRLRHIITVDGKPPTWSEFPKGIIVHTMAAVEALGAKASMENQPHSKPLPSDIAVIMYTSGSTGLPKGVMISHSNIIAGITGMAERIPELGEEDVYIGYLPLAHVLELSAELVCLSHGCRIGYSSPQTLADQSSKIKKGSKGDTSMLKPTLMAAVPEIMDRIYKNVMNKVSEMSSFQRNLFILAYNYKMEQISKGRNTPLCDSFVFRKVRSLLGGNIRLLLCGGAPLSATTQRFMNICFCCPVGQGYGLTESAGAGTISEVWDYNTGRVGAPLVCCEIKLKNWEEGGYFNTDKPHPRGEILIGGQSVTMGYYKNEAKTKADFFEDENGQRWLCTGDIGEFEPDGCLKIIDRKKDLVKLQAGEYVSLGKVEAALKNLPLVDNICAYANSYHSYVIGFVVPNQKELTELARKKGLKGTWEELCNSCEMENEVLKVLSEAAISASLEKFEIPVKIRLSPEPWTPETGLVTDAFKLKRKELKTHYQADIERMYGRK
UniProt O95155, whole entry, looked up: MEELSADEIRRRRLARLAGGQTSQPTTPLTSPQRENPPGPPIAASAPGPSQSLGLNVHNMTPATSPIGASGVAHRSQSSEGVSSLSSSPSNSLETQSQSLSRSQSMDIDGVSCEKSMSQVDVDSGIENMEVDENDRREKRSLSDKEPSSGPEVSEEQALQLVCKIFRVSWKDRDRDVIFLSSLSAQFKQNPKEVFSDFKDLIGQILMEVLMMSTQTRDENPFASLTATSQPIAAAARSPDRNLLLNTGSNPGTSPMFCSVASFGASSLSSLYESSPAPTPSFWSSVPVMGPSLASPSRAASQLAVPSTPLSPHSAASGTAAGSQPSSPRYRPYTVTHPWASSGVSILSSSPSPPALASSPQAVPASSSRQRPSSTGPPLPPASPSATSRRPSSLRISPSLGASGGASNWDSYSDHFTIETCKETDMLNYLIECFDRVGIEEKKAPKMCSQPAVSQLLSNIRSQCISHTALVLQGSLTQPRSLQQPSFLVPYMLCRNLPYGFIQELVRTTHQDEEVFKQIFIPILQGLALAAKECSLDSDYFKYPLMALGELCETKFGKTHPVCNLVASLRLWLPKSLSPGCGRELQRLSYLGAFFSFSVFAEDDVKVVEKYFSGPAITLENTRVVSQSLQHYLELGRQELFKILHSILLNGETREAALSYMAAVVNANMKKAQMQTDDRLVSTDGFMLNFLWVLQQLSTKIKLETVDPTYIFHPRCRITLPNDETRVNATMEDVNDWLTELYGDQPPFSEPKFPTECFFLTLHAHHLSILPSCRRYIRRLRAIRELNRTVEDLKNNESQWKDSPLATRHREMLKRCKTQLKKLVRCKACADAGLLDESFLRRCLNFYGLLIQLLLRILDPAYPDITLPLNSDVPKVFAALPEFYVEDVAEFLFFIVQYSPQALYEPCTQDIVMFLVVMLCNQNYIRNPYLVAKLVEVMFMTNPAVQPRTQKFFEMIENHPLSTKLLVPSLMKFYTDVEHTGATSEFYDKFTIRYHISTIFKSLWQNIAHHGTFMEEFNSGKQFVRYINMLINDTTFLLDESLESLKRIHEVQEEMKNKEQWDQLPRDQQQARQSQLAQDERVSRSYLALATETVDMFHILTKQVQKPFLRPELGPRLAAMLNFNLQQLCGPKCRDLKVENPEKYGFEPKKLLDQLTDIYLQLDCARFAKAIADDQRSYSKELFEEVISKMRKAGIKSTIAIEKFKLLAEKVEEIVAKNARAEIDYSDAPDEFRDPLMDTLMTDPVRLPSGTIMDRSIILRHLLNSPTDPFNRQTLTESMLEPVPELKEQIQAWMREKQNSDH
UniProt O95801: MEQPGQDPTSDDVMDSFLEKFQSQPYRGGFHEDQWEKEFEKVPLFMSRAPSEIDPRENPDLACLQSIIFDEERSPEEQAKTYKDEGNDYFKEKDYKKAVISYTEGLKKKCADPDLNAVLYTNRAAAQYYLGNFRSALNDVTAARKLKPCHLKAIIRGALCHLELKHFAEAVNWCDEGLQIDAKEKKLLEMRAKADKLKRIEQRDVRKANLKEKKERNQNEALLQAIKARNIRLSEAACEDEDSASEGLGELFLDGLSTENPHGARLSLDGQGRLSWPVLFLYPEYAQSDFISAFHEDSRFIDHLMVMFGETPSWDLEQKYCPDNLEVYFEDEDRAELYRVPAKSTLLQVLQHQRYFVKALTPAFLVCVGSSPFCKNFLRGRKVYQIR
UniProt O95218: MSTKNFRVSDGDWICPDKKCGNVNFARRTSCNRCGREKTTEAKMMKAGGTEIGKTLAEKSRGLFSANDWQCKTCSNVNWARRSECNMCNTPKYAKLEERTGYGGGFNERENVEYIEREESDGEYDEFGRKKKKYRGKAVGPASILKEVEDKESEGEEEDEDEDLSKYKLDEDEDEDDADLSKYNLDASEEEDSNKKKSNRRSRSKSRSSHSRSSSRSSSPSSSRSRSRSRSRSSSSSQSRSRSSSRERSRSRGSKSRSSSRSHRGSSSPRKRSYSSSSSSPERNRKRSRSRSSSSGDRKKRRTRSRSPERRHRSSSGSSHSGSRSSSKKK
UniProt O95400: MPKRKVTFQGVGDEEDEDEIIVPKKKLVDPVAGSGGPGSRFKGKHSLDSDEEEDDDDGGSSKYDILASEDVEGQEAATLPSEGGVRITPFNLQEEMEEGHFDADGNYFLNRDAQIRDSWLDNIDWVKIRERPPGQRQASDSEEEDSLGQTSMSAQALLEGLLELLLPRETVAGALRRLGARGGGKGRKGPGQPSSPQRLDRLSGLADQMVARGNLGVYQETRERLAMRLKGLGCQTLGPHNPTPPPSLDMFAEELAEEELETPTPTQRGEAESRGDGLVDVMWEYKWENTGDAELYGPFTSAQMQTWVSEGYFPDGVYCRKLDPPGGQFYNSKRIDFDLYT
UniProt P00966: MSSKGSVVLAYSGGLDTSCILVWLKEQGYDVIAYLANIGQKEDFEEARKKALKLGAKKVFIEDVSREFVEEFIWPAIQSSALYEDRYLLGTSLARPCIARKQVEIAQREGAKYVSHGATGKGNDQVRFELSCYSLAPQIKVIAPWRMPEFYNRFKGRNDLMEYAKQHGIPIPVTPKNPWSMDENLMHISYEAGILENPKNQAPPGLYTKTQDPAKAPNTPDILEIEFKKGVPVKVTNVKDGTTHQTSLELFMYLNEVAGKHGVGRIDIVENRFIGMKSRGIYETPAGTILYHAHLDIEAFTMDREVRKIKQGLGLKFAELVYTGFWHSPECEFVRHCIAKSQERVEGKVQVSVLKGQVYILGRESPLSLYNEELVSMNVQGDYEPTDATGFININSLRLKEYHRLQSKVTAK
UniProt P00390: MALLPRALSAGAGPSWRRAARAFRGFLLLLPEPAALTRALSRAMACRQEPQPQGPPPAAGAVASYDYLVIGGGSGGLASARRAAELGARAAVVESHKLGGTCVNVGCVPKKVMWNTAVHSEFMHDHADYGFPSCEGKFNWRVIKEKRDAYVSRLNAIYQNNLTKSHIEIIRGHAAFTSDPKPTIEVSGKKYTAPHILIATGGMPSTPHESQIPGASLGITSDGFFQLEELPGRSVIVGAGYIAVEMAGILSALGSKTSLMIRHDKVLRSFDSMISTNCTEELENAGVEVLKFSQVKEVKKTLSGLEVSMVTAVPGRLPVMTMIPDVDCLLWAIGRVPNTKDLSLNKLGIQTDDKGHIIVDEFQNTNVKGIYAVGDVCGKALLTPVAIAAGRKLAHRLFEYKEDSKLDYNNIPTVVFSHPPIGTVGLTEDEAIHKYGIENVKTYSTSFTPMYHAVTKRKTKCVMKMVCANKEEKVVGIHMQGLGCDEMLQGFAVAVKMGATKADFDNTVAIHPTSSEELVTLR

This is a selection; strong and weak results do not stand in their true shares. This is a noisy data set.

Compound in the experiment: COC(=O)/C=C/c1ccccc1 [methyl cinnamate]
As to the kind of experiment: log2 ratio of iodoacetamide-alkyne labeling of the cysteine site, DMSO over compound (competition); higher = stronger covalent engagement of the cysteine by the compound, active = 1 or more. The note with it: 500 µM; treatment time 1 h; system: HEK293T cell lysate. In a few lines:
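Three replicates, each with duplicate channels, were prepared from HEK293T lysate (2 mg/mL) treated with vehicle or electrophile at 500 µM for 1 h at ambient temperature. Iodoacetamide alkyne was then applied for 1 h, and samples were clicked to sCIP-TMT reagents, pooled, trypsin-digested overnight at 37 °C, enriched on streptavidin, acid-eluted and analysed on Orbitrap Eclipse LC-MS/MS with FAIMS, with FragPipe quantification. The log2 competition ratio per cysteine is the mean control-channel divided by the mean compound-channel reporter intensity. Cysteines quantified in only one replicate were left out.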
In the case of ENO1 C119 (UniProt P06733), the “log2 ratio of iodoacetamide-alkyne labeling” value (shortened to “log2 ratio”) was inactive: 0.0539.
In the case of PRPF6 C698 (UniProt O94906), the “log2 ratio” value was inactive: 0.0159.
As to HPRT1 C23 (UniProt P00492), the “log2 ratio” value was inactive: -0.00153.
The value for UniProt O95163_C23 was inactive: 0.258; that for PFN1 C17 (UniProt P07737) was inactive: -0.293.
As for UniProt O94763_C448, the “log2 ratio” value was inactive: 0.154.
Turning to PCNT C2185 (UniProt O95613), the “log2 ratio” value is inactive: 0.359.
The result for UBXN7 C478 (UniProt O94888) reads inactive: -0.0591; that for SOGA1 C267 (UniProt O94964), inactive: 0.0286.
Consider POLR1A C822 (UniProt O95602), for which the “log2 ratio” value is inactive: 0.124.
The result for ACSL3 C85 (UniProt O95573) reads inactive: -0.245.
With UROD C308 (UniProt P06132), the “log2 ratio” value is inactive: 0.124.
For the target UBE4B C448 (UniProt O95155), the “log2 ratio” value was inactive: 0.0832.
Consider TTC4 C63 (UniProt O95801), for which the “log2 ratio” value was inactive: -0.049.
In the case of ZRANB2 C71 (UniProt O95218), the “log2 ratio” value is inactive: 0.1.
Consider CD2BP2 C234 (UniProt O95400), for which the “log2 ratio” value is inactive: -0.134.
Take ACTL6A C152 (UniProt O96019): the “log2 ratio” value is inactive: -0.0329.
As for UniProt O95319_C174, the “log2 ratio” value is inactive: 0.0609.
Turning to ASS1 C132 (UniProt P00966), the “log2 ratio” value is inactive: -0.0475.
In the case of ANXA2 C133 (UniProt P07355), the “log2 ratio” value was inactive: 0.172.
In the case of GLS C266 (UniProt O94925), the “log2 ratio” value is inactive: -0.0709.
With GSR C107 (UniProt P00390), the “log2 ratio” value is inactive: 0.0491.
